Data from the supplement of paper PMC6411743.
± gives the standard deviation of the averaged measurements. This is a selection; strong and weak results do not stand in their true shares.

How the values were obtained:
Experiment in all cases: NP40-soluble protein abundance relative to vehicle (solubility fold change) (ratio); higher = more soluble protein in presence of AMP-PNP
UniProt Q9NUS5 = molecular target: T1, UniProt Q9NUS5
T1 sequence (whole entry): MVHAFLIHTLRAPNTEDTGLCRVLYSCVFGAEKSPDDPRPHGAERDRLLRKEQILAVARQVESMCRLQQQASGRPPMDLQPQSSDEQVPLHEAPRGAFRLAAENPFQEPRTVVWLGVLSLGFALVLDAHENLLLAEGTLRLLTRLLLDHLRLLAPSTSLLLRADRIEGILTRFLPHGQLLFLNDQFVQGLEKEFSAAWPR
In short: (§1)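 Values are fold changes against the detergent-processed vehicle, based on vsn-normalised intensities. Jurkat crude lysate was treated at eight concentrations from 0.1 to 10 mM (10 min at room temperature, then 3 min at 37 °C), solubilised with 0.8% NP40 and benzonase, ultracentrifuged and analysed by TMT-labelled LC-MS/MS over three independent experiments.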

[1] = molecular target: T2, UniProt Q9NUU7 and related entries
T2 sequence (whole entry): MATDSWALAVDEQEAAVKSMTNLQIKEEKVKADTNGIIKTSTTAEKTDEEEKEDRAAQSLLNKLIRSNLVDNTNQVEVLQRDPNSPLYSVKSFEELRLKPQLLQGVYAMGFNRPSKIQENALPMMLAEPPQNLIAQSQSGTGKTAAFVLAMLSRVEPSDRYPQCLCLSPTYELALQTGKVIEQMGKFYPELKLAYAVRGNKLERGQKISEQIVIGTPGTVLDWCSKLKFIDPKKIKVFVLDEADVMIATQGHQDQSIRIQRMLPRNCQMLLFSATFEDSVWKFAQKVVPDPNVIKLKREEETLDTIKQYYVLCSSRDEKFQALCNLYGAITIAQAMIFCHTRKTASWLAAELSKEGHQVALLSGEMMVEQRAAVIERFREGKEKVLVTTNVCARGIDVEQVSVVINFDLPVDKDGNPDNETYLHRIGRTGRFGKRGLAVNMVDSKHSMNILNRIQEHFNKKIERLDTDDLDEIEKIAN
In short: as §1

[2] = molecular target: T3, UniProt Q9NVH6 and related entries
T3 sequence (whole entry): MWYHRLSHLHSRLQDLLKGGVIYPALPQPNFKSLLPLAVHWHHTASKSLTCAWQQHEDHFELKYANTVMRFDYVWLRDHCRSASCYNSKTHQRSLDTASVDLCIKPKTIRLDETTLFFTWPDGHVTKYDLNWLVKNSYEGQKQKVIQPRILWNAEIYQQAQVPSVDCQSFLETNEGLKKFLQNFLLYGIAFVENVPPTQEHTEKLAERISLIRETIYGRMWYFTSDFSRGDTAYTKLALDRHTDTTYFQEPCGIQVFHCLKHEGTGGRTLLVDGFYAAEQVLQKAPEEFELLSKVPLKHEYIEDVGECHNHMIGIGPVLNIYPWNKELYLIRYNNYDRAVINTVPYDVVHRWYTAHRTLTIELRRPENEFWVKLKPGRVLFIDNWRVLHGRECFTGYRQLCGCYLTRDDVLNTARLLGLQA
In short: as §1

[3] = molecular target: T4, UniProt Q9NZ52-3|Q9NZ52-4|Q9NZ52 and related entries
T4 sequence (whole entry): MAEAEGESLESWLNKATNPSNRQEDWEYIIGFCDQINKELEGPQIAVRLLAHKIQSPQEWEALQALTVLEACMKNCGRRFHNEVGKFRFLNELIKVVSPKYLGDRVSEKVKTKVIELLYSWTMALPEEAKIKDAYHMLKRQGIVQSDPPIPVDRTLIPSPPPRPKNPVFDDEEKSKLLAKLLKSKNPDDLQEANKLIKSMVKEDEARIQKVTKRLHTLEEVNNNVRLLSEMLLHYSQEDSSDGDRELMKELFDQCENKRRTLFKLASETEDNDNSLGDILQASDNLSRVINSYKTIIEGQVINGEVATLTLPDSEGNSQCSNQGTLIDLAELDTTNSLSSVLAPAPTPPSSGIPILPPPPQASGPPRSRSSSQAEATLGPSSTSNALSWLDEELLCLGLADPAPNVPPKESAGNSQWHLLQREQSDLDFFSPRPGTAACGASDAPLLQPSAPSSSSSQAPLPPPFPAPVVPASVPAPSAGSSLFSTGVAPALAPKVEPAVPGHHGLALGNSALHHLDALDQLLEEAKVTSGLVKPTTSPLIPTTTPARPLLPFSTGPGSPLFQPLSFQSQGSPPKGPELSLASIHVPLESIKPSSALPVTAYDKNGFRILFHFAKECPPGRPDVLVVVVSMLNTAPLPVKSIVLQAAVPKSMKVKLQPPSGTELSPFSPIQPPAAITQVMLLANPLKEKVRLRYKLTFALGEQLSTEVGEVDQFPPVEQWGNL
In short: as §1

UniProt Q9P109 = molecular target: T5, UniProt Q9P109
T5 sequence (whole entry): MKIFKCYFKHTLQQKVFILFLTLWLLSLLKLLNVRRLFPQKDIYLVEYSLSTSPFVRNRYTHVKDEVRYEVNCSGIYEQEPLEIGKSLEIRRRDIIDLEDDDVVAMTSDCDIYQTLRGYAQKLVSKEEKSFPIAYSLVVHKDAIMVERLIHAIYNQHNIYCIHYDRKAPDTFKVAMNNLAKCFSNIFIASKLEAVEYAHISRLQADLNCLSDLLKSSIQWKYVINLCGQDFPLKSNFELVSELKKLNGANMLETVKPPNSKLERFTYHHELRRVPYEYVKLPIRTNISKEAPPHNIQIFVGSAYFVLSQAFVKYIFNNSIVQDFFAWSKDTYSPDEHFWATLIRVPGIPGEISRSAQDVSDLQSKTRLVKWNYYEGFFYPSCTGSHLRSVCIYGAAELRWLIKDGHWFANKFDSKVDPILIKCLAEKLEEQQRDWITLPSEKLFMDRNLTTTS
In short: as §1

Work on `Nc1ncnc2c1ncn2[C@@H]1O[C@H](COP(=O)(O)OP(=O)(O)NP(=O)(O)O)[C@@H](O)[C@H]1O` [adenylyl imidodiphosphate] yielded an NP40-soluble protein abundance (UniProt Q9NUS5; concentration: 8mM) of 0.938 ± 0.038, an NP40-soluble protein abundance (UniProt Q9NUS5; concentration: 10mM) of 0.936 ± 0.041 and an NP40-soluble protein abundance ([1]; concentration: 1mM) of 1.04 ± 0.017. It also gave an NP40-soluble protein abundance ([1]; concentration: 2mM) of 0.987 ± 0.048, an NP40-soluble protein abundance ([1]; concentration: 4mM) of 1.02 ± 0.031 and an NP40-soluble protein abundance ([1]; concentration: 6mM) of 1.028 ± 0.01. For the same compound, the NP40-soluble protein abundance ([1]; concentration: 8mM) was 1.03 ± 0.013, the NP40-soluble protein abundance ([1]; concentration: 10mM) was 1 ± 0.011 and the NP40-soluble protein abundance ([2]; concentration: 1mM) was 0.969 ± 0.051. It also gave an NP40-soluble protein abundance ([2]; concentration: 2mM) of 0.9817 ± 0.0096, an NP40-soluble protein abundance ([2]; concentration: 4mM) of 0.984 ± 0.06 and an NP40-soluble protein abundance ([2]; concentration: 6mM) of 0.972 ± 0.065. For the same compound, the NP40-soluble protein abundance ([2]; concentration: 8mM) was 0.985 ± 0.018, the NP40-soluble protein abundance ([2]; concentration: 10mM) was 0.969 ± 0.046 and the NP40-soluble protein abundance ([3]; concentration: 1mM) was 1.02 ± 0.027. The NP40-soluble protein abundance ([3]; concentration: 2mM) was 1.03 ± 0.043, the NP40-soluble protein abundance ([3]; concentration: 4mM) was 1 ± 0.026 and the NP40-soluble protein abundance ([3]; concentration: 6mM) was 0.992 ± 0.035. The NP40-soluble protein abundance ([3]; concentration: 8mM) was 0.963 ± 0.028, the NP40-soluble protein abundance ([3]; concentration: 10mM) was 0.964 ± 0.025 and the NP40-soluble protein abundance (UniProt Q9P109; concentration: 1mM) was 0.98 ± 0.011. For the same compound, the NP40-soluble protein abundance (UniProt Q9P109; concentration: 2mM) was 0.973 ± 0.018, the NP40-soluble protein abundance (UniProt Q9P109; concentration: 4mM) was 0.962 ± 0.044 and the NP40-soluble protein abundance (UniProt Q9P109; concentration: 6mM) was 0.949 ± 0.011. The NP40-soluble protein abundance (UniProt Q9P109; concentration: 8mM) was 0.954 ± 0.028 and the NP40-soluble protein abundance (UniProt Q9P109; concentration: 10mM) was 0.926 ± 0.0081.
